Data as given in PubChem BioAssay AID1224828 (NIAID, 2016)
Screen: 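Find genes required for NF-kappaB p65 moving into the nucleus after LPS in mouse macrophages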 (primary screen). Cell system: mouse RAW264.7 G9 macrophage reporter cells (GFP-p65, Tnf promoter-mCherry). Reagents: siRNA pool against mouse genes, 100 nM. Duration: 2 days siRNA transfection, then 40 min LPS before fixation. Conditions: LPS (Salmonella minnesota R595) at 10 ng/ml. Read-out: 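Microscopy ratio of nuclear to perinuclear-ring GFP-p65 signal, scaled to the plate median; gene score is the average of two replicate robust z-scores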. Direction: p65 translocation robust z-score: higher = more nuclear NF-kappaB p65 after LPS than the plate median; nuclear/cytoplasmic p65 ratio: higher = more nuclear NF-kappaB p65. Hit rule: 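Called active when z exceeds 3.3 or falls under -1.56 (median of Tlr4 controls), giving activity score of at least 50; no calls for control wells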. Meaning of the calls: active = hit (p65 shift raised or lowered); inactive = no clear change.
Shown is an unselected part of about 17,000 reagents. 762 of them (4.5%) count as active. 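Active calls include both raised and lowered p65 entry, mostly lowered; wells with fewer than 50 cells lack a z-score.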 Raw values vary from plate to plate and are shown uncorrected. Reagent sequences are not shown.

Cryab (GeneID 12955): p65 translocation robust z-score = -1.59; nuclear/cytoplasmic p65 ratio, rep 1 = 1.3; nuclear/cytoplasmic p65 ratio, rep 2 = 1.14; low cell count flag = enough cells to score; Call = active
Chrac1 (GeneID 93696): p65 translocation robust z-score = 0.22; nuclear/cytoplasmic p65 ratio, rep 1 = 1.49; nuclear/cytoplasmic p65 ratio, rep 2 = 1.41; low cell count flag = enough cells to score; Call = inactive
Fgfr4 (GeneID 14186): p65 translocation robust z-score = -0.83; nuclear/cytoplasmic p65 ratio, rep 1 = 1.6; nuclear/cytoplasmic p65 ratio, rep 2 = 1.28; low cell count flag = enough cells to score; Call = inactive
Bhlhe40 (GeneID 20893): p65 translocation robust z-score = 0.45; nuclear/cytoplasmic p65 ratio, rep 1 = 1.62; nuclear/cytoplasmic p65 ratio, rep 2 = 1.74; low cell count flag = enough cells to score; Call = inactive
Rbms3 (GeneID 207181): p65 translocation robust z-score = -0.33; nuclear/cytoplasmic p65 ratio, rep 1 = 1.53; nuclear/cytoplasmic p65 ratio, rep 2 = 1.6; low cell count flag = enough cells to score; Call = inactive
Gin1 (GeneID 252876): p65 translocation robust z-score = -1.45; nuclear/cytoplasmic p65 ratio, rep 1 = 1.09; nuclear/cytoplasmic p65 ratio, rep 2 = 1.21; low cell count flag = enough cells to score; Call = inactive
Cyp2j9 (GeneID 74519): p65 translocation robust z-score = 0.27; nuclear/cytoplasmic p65 ratio, rep 1 = 1.61; nuclear/cytoplasmic p65 ratio, rep 2 = 1.83; low cell count flag = enough cells to score; Call = inactive

Records listed so far whose gene name begins with C or c (3):
Cryab (GeneID 12955): p65 translocation robust z-score = -1.59; nuclear/cytoplasmic p65 ratio, rep 1 = 1.3; nuclear/cytoplasmic p65 ratio, rep 2 = 1.14; low cell count flag = enough cells to score; Call = active
Chrac1 (GeneID 93696): p65 translocation robust z-score = 0.22; nuclear/cytoplasmic p65 ratio, rep 1 = 1.49; nuclear/cytoplasmic p65 ratio, rep 2 = 1.41; low cell count flag = enough cells to score; Call = inactive
Cyp2j9 (GeneID 74519): p65 translocation robust z-score = 0.27; nuclear/cytoplasmic p65 ratio, rep 1 = 1.61; nuclear/cytoplasmic p65 ratio, rep 2 = 1.83; low cell count flag = enough cells to score; Call = inactive

Next reagents follow.
Nlgn3 (GeneID 245537): p65 translocation robust z-score = -0.19; nuclear/cytoplasmic p65 ratio, rep 1 = 1.8; nuclear/cytoplasmic p65 ratio, rep 2 = 1.4; low cell count flag = enough cells to score; Call = inactive
Nat8 (GeneID 68396): p65 translocation robust z-score = 0.46; nuclear/cytoplasmic p65 ratio, rep 1 = 1.59; nuclear/cytoplasmic p65 ratio, rep 2 = 1.38; low cell count flag = enough cells to score; Call = inactive
Klra17 (GeneID 170733): p65 translocation robust z-score = -0.27; nuclear/cytoplasmic p65 ratio, rep 1 = 1.5; nuclear/cytoplasmic p65 ratio, rep 2 = 1.29; low cell count flag = enough cells to score; Call = inactive
Tnfaip8l2 (GeneID 69769): nuclear/cytoplasmic p65 ratio, rep 1 = 1.35; nuclear/cytoplasmic p65 ratio, rep 2 = 1.27; low cell count flag = fewer than 50 cells per well; well left out of scoring; Call = inactive
Wdr59 (GeneID 319481): p65 translocation robust z-score = 0.66; nuclear/cytoplasmic p65 ratio, rep 1 = 1.41; nuclear/cytoplasmic p65 ratio, rep 2 = 1.59; low cell count flag = enough cells to score; Call = inactive
